PMC3089618
Results are given in words; binding and its absence hold for the method and conditions named. In cells and extracts the contact can be indirect. Here binding means that the protein was enriched with, or labelled near, the bait; the list need not be complete.

Chains of the proteins cited; added tags and fusions are not shown.
UniProt Q9UNS1: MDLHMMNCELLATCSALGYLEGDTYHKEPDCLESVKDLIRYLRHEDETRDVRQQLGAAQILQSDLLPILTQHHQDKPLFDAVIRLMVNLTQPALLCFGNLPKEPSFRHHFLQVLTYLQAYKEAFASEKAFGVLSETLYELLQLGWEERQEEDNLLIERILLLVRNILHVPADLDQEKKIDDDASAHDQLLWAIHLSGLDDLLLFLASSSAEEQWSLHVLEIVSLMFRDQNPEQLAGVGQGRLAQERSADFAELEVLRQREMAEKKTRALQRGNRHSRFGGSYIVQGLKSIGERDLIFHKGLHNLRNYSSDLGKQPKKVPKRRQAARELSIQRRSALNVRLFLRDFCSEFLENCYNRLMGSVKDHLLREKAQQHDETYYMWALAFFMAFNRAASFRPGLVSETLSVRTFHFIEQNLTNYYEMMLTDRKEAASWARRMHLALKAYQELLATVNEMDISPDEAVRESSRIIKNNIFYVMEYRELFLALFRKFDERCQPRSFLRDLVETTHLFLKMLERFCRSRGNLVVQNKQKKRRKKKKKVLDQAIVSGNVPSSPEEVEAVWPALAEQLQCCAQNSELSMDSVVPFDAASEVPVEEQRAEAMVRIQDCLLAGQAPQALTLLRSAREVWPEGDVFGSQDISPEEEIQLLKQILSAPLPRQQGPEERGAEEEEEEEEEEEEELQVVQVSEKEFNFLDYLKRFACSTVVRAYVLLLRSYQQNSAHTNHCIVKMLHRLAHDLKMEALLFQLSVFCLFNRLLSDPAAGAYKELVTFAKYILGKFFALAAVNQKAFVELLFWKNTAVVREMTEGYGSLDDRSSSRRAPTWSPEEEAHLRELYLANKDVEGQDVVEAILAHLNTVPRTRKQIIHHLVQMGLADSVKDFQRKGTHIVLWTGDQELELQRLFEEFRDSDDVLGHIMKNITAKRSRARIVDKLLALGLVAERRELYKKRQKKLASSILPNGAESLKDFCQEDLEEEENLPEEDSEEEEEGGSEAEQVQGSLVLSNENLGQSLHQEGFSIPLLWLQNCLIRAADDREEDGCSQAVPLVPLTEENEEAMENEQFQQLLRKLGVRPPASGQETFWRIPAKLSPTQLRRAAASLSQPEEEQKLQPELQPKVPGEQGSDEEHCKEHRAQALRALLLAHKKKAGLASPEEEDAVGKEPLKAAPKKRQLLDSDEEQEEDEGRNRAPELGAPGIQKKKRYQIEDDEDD
UniProt Q8IY18: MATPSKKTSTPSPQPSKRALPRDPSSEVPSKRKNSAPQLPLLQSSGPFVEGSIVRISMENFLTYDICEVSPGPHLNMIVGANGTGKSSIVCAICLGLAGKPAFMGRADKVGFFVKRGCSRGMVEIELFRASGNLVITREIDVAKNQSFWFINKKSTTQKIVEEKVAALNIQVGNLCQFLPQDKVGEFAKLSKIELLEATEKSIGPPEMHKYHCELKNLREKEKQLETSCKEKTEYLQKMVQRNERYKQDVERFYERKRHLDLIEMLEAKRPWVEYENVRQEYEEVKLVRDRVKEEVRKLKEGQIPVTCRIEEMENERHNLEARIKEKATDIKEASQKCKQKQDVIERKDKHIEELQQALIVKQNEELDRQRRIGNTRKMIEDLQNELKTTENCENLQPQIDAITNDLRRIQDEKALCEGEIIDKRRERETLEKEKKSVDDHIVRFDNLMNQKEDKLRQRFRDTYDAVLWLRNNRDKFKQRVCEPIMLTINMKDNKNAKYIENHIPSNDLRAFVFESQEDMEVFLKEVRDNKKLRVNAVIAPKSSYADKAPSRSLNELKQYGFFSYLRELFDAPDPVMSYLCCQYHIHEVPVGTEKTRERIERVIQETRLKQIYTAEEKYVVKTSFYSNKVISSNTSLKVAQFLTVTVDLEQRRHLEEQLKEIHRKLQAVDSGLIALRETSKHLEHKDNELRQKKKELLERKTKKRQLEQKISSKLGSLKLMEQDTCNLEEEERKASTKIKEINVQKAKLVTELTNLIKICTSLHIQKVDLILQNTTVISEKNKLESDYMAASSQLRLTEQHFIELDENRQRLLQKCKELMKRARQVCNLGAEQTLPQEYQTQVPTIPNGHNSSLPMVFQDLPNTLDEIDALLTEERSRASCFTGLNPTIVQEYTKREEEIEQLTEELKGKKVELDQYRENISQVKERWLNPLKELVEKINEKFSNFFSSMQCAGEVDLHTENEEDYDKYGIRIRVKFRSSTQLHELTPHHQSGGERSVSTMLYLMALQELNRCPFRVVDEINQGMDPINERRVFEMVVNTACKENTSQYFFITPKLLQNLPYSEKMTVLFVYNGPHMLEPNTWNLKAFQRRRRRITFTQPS
UniProt P53350: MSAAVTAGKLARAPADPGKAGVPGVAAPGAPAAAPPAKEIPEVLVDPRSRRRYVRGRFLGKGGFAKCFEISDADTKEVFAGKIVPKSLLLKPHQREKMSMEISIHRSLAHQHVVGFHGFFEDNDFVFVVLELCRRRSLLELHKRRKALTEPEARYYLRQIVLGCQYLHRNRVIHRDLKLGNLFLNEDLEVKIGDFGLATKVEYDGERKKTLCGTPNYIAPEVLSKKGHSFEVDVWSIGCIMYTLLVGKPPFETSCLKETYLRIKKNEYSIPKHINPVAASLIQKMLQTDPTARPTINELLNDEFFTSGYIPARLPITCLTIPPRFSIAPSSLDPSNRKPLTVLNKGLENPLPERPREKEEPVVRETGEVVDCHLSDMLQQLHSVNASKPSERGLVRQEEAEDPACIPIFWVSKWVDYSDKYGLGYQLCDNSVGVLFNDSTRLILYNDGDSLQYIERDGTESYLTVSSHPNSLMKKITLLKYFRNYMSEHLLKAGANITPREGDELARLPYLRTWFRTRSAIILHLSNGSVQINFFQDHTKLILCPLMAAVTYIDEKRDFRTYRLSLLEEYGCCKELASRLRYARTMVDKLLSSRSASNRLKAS
UniProt Q9HAW4: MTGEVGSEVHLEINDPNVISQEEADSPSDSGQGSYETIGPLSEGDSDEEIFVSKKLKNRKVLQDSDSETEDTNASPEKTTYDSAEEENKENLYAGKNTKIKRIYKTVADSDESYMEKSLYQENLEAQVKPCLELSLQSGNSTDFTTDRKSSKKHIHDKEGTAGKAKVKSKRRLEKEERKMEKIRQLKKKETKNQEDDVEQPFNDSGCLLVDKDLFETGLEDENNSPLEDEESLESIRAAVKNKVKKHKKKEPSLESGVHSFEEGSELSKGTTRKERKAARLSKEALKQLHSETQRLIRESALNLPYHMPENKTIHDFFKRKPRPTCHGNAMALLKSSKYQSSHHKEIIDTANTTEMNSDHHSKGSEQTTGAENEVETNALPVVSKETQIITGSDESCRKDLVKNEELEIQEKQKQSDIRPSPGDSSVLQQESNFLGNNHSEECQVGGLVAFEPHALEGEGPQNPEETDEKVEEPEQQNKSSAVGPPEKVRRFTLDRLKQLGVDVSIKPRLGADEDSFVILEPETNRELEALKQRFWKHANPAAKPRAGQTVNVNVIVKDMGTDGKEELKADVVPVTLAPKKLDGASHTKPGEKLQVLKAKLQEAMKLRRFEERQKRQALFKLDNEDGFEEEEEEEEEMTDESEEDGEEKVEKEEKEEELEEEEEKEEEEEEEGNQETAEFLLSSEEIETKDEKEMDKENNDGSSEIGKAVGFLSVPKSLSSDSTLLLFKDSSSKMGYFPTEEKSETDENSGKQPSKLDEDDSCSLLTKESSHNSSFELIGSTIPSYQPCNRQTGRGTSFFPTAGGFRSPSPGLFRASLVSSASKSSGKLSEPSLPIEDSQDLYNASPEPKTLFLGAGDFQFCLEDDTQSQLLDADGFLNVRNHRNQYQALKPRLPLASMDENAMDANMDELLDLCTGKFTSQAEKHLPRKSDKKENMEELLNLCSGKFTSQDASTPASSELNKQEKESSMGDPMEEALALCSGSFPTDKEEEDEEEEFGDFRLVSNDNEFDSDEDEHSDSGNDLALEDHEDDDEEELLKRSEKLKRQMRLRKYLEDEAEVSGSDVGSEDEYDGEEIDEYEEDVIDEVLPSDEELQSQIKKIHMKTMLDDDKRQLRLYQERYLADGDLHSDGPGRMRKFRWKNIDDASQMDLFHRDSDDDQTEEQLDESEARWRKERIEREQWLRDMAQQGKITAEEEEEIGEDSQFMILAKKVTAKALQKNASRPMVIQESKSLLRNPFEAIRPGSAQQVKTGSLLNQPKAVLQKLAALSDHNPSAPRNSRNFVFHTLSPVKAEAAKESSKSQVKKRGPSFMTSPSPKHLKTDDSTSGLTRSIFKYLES
UniProt Q96GD4: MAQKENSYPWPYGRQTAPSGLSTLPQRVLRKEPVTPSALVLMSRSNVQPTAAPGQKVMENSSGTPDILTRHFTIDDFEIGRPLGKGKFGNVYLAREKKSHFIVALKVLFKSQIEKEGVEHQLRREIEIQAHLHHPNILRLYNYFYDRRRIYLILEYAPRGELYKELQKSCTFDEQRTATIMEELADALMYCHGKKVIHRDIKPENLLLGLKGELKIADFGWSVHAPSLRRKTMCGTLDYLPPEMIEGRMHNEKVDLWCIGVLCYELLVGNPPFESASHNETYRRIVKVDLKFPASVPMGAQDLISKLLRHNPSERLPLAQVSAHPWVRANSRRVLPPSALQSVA
UniProt O14965: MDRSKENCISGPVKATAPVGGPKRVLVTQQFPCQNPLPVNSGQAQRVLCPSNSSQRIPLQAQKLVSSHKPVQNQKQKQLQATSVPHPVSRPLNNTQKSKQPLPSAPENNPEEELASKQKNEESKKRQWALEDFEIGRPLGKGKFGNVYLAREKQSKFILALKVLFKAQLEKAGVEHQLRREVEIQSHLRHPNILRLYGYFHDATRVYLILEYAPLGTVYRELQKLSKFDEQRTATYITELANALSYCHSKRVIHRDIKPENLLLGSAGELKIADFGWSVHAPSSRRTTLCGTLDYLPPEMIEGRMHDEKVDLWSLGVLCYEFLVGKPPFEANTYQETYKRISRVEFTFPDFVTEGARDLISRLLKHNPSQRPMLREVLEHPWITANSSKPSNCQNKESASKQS

These molecules were tested against FLAG-tagged Tim protein (human Timeless), wild type (human) (UniProt Q9UNS1) (assay: affinity purification with mass spectrometry + co-IP; FLAG-Tim purified on FLAG-agarose from a stable 293T cell line, peptide elution, compared with a FLAG-vector control line; enriched bands analysed by LC/MS/MS and partners validated by Western blot).

Row | binding | Molecule
1 | binds | SMC5 (from UniProt Q8IY18 1-1101)
2 | binds | Polo-like kinase 1 (Plk1), endogenous in 293 cells (from UniProt P53350 1-603) (enzyme)
3 | binds | Claspin (from UniProt Q9HAW4 1-1339)
4 | binds | Aurora B, endogenous in 293T cells (from UniProt Q96GD4 1-344) (enzyme)
5 | binds | Aurora A, endogenous in 293T cells (from UniProt O14965 1-403) (enzyme)
6 | binds | SMC6 (protein, UniProt Q96SB8 1-1091) MAKRKEENFSSPKNAKRPRQEELEDFDKDGDEDECKGTTLTAAEVGIIESIHLKNFMCHSMLGPFKFGSNVNFVVGNNGSGKSAVLTALIVGLGGRAVATNRGSSLKGFVKDGQNSADISITLRNRGDDAFKASVYGNSILIQQHISIDGSRSYKLKSATGSVVSTRKEELIAILDHFNIQVDNPVSVLTQEMSKQFLQSKNEGDKYKFFMKATQLEQMKEDYSYIMETKERTKEQIHQGEERLTELKRQCVEKEERFQSIAGLSTMKTNLESLKHEMAWAVVNEIEKQLNAIRDNIKIGEDRAARLDRKMEEQQVRLNEAEQKYKDIQDKLEKISEETNARAPECMALKADVVAKKRAYNEAEVLYNRSLNEYKALKKDDEQLCKRIEELKKSTDQSLEPERLERQKKISWLKERVKAFQNQENSVNQEIEQFQQAIEKDKEEHGKIKREELDVKHALSYNQRQLKELKDSKTDRLKRFGPNVPALLEAIDDAYRQGHFTYKPVGPLGACIHLRDPELALAIESCLKGLLQAYCCHNHADERVLQALMKRFYLPGTSRPPIIVSEFRNEIYDVRHRAAYHPDFPTVLTALEIDNAVVANSLIDMRGIETVLLIKNNSVARAVMQSQKPPKNCREAFTADGDQVFAGRYYSSENTRPKFLSRDVDSEISDLENEVENKTAQILNLQQHLSALEKDIKHNEELLKRCQLHYKELKMKIRKNISEIRELENIEEHQSVDIATLEDEAQENKSKMKMVEEHMEQQKENMEHLKSLKIEAENKYDAIKFKINQLSELADPLKDELNLADSEVDNQKRGKRHYEEKQKEHLDTLNKKKRELDMKEKELEEKMSQARQICPERIEVEKSASILDKEINRLRQKIQAEHASHGDREEIMRQYQEARETYLDLDSKVRTLKKFIKLLGEIMEHRFKTYQQFRRCLTLRCKLYFDNLLSQRAYCGKMNFDHKNETLSISVQPGEGNKAAFNDMRALSGGERSFSTVCFILSLWSIAESPFRCLDEFDVYMDMVNRRIAMDLILKMADSQRFRQFILLTPQSMSSLPSSKLIRILRMSDPERGQTTLPFRPVTQEEDDDQR
7 | binds | MCM3 (protein, UniProt P25205 1-808) MAGTVVLDDVELREAQRDYLDFLDDEEDQGIYQSKVRELISDNQYRLIVNVNDLRRKNEKRANRLLNNAFEELVAFQRALKDFVASIDATYAKQYEEFYVGLEGSFGSKHVSPRTLTSCFLSCVVCVEGIVTKCSLVRPKVVRSVHYCPATKKTIERRYSDLTTLVAFPSSSVYPTKDEENNPLETEYGLSVYKDHQTITIQEMPEKAPAGQLPRSVDVILDDDLVDKAKPGDRVQVVGTYRCLPGKKGGYTSGTFRTVLIACNVKQMSKDAQPSFSAEDIAKIKKFSKTRSKDIFDQLAKSLAPSIHGHDYVKKAILCLLLGGVERDLENGSHIRGDINILLIGDPSVAKSQLLRYVLCTAPRAIPTTGRGSSGVGLTAAVTTDQETGERRLEAGAMVLADRGVVCIDEFDKMSDMDRTAIHEVMEQGRVTIAKAGIHARLNARCSVLAAANPVYGRYDQYKTPMENIGLQDSLLSRFDLLFIMLDQMDPEQDREISDHVLRMHRYRAPGEQDGDAMPLGSAVDILATDDPNFSQEDQQDTQIYEKHDNLLHGTKKKKEKMVSAAFMKKYIHVAKIIKPVLTQESATYIAEEYSRLRSQDSMSSDTARTSPVTARTLETLIRLATAHAKARMSKTVDLQDAEEAVELVQYAYFKKVLEKEKKRKKRSEDESETEDEEEKSQEDQEQKRKRRKTRQPDAKDGDSYDPYDFSDTEEEMPQVHTPKTADSQETKESQKVELSESRLKAFKVALLDVFREAHAQSIGMNRLTESINRDSEEPFSSVEIQAALSKMQDDNQVMVSEGIIFLI
8 | binds | MCM5 (protein, UniProt P33992 1-734) MSGFDDPGIFYSDSFGGDAQADEGQARKSQLQRRFKEFLRQYRVGTDRTGFTFKYRDELKRHYNLGEYWIEVEMEDLASFDEDLADYLYKQPAEHLQLLEEAAKEVADEVTRPRPSGEEVLQDIQVMLKSDASPSSIRSLKSDMMSHLVKIPGIIIAASAVRAKATRISIQCRSCRNTLTNIAMRPGLEGYALPRKCNTDQAGRPKCPLDPYFIMPDKCKCVDFQTLKLQELPDAVPHGEMPRHMQLYCDRYLCDKVVPGNRVTIMGIYSIKKFGLTTSRGRDRVGVGIRSSYIRVLGIQVDTDGSGRSFAGAVSPQEEEEFRRLAALPNVYEVISKSIAPSIFGGTDMKKAIACLLFGGSRKRLPDGLTRRGDINLLMLGDPGTAKSQLLKFVEKCSPIGVYTSGKGSSAAGLTASVMRDPSSRNFIMEGGAMVLADGGVVCIDEFDKMREDDRVAIHEAMEQQTISIAKAGITTTLNSRCSVLAAANSVFGRWDETKGEDNIDFMPTILSRFDMIFIVKDEHNEERDVMLAKHVITLHVSALTQTQAVEGEIDLAKLKKFIAYCRVKCGPRLSAEAAEKLKNRYIIMRSGARQHERDSDRRSSIPITVRQLEAIVRIAEALSKMKLQPFATEADVEEALRLFQVSTLDAALSGTLSGVEGFTSQEDQEMLSRIEKQLKRRFAIGSQVSEHSIIKDFTKQKYPEHAIHKVLQLMLRRGEIQHRMQRKVLYRLK
9 | binds | Tipin (protein, UniProt Q9BVW5 1-301) MLEPQENGVIDLPDYEHVEDETFPPFPPPASPERQDGEGTEPDEESGNGAPVRVPPKRTVKRNIPKLDAQRLISERGLPALRHVFDKAKFKGKGHEAEDLKMLIRHMEHWAHRLFPKLQFEDFIDRVEYLGSKKEVQTCLKRIRLDLPILHEDFVSNNDEVAENNEHDVTSTELDPFLTNLSESEMFASELSRSLTEEQQQRIERNKQLALERRQAKLLSNSQTLGNDMLMNTPRAHTVEEVNTDEDQKEESNGLNEDILDNPCNDAIANTLNEEETLLDQSFKNVQQQLDATSRNITEAR
